The list shows a part of the results.
Tests used:
Assay in all cases: glycan array binding signal (z-score within array); higher = stronger binding
Conditions in all cases: glycan notation: IUPAC condensed, linker removed
Gal(a1-3)Gal = target: Gal(a1-3)Gal
Outline: (§1)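 Columns mapping to the same glycan were averaged after glycan names were converted to IUPAC-condensed notation. The data come from 3228 arrays in the Consortium for Functional Glycomics database, limited to those with an available protein sequence. Binding is reported as a within-array Z-score averaged across arrays of one protein sequence and across linkers.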

Gal(a1-3)Gal(b1-3)GlcNAc = target: Gal(a1-3)Gal(b1-3)GlcNAc
Outline: as §1

[1] = target: Gal(a1-3)Gal(b1-3)GlcNAc(b1-2)Man
Outline: as §1

[2] = target: Gal(a1-3)Gal(b1-3)GlcNAc(b1-2)Man(a1-3)[Gal(a1-3)Gal(b1-3)GlcNAc(b1-2)Man(a1-6)]Man(b1-4)GlcNAc(b1-4)GlcNAc
Outline: as §1

[3] = target: Gal(a1-3)Gal(b1-3)GlcNAc(b1-3)GalNAc
Outline: as §1

[4] = target: Gal(a1-3)Gal(b1-3)GlcNAc(b1-6)GalNAc
Outline: as §1

[5] = target: Gal(a1-3)Gal(b1-3)[Fuc(a1-4)]GlcNAc(b1-2)Man(a1-3)[Gal(a1-3)Gal(b1-3)[Fuc(a1-4)]GlcNAc(b1-2)Man(a1-6)]Man(b1-4)GlcNAc(b1-4)GlcNAc
Outline: as §1

Gal(a1-3)Gal(b1-4)Glc = target: Gal(a1-3)Gal(b1-4)Glc
Outline: as §1

Gal(a1-3)Gal(b1-4)GlcNAc = target: Gal(a1-3)Gal(b1-4)GlcNAc
Outline: as §1

[6] = target: Gal(a1-3)Gal(b1-4)GlcNAc(b1-2)Man
Outline: as §1

[7] = target: Gal(a1-3)Gal(b1-4)GlcNAc(b1-2)Man(a1-3)[Gal(a1-3)Gal(b1-4)GlcNAc(b1-2)Man(a1-6)]Man(b1-4)GlcNAc(b1-4)GlcNAc
Outline: as §1

[8] = target: Gal(a1-3)Gal(b1-4)GlcNAc(b1-3)GalNAc
Outline: as §1

[9] = target: Gal(a1-3)Gal(b1-4)GlcNAc(b1-6)GalNAc
Outline: as §1

[10] = target: Gal(a1-3)Gal(b1-4)[Fuc(a1-3)]GlcNAc
Outline: as §1

[11] = target: Gal(a1-3)Gal(b1-4)[Fuc(a1-3)]GlcNAc(b1-2)Man(a1-3)[Gal(a1-3)Gal(b1-4)[Fuc(a1-3)]GlcNAc(b1-2)Man(a1-6)]Man(b1-4)GlcNAc(b1-4)GlcNAc
Outline: as §1

Gal(a1-3)GalNAc = target: Gal(a1-3)GalNAc
Outline: as §1

[12] = target: Gal(a1-3)[Gal(a1-4)]Gal(b1-4)GlcNAc
Outline: as §1

[13] = target: Gal(a1-4)Gal(b1-3)GlcNAc(b1-2)Man(a1-3)[Gal(a1-4)Gal(b1-3)GlcNAc(b1-2)Man(a1-6)]Man(b1-4)GlcNAc(b1-4)GlcNAc
Outline: as §1

Gal(a1-4)Gal(b1-4)Glc = target: Gal(a1-4)Gal(b1-4)Glc
Outline: as §1

Gal(a1-4)Gal(b1-4)GlcNAc = target: Gal(a1-4)Gal(b1-4)GlcNAc
Outline: as §1

[14] = target: Gal(a1-4)Gal(b1-4)GlcNAc(b1-2)Man(a1-3)[Gal(a1-4)Gal(b1-4)GlcNAc(b1-2)Man(a1-6)]Man(b1-4)GlcNAc(b1-4)GlcNAc
Outline: as §1

[15] = target: Gal(a1-4)Gal(b1-4)GlcNAc(b1-3)Gal(b1-4)Glc
Outline: as §1

Gal(a1-4)GlcNAc = target: Gal(a1-4)GlcNAc
Outline: as §1

Gal(a1-6)Glc = target: Gal(a1-6)Glc
Outline: as §1

Gal(b1-2)Gal = target: Gal(b1-2)Gal
Outline: as §1

Gal(b1-3)Gal = target: Gal(b1-3)Gal
Outline: as §1

Gal(b1-3)Gal(b1-4)GlcNAc = target: Gal(b1-3)Gal(b1-4)GlcNAc
Outline: as §1

Gal(b1-3)GalNAc = target: Gal(b1-3)GalNAc
Outline: as §1

[16] = target: Gal(b1-3)GalNAc(a1-3)[Fuc(a1-2)]Gal(b1-4)Glc
Outline: as §1

[17] = target: Gal(b1-3)GalNAc(a1-3)[Fuc(a1-2)]Gal(b1-4)GlcNAc
Outline: as §1

Gal(b1-3)GalNAc(b1-3)Gal = target: Gal(b1-3)GalNAc(b1-3)Gal
Outline: as §1

[18] = target: Gal(b1-3)GalNAc(b1-3)Gal(a1-4)Gal(b1-4)Glc
Outline: as §1

[19] = target: Gal(b1-3)GalNAc(b1-4)Gal(b1-4)Glc
Outline: as §1

[20] = target: Gal(b1-3)GalNAc(b1-4)[Neu5Ac(a2-3)]Gal(b1-4)Glc
Outline: as §1

Gal(b1-3)GlcNAc = target: Gal(b1-3)GlcNAc
Outline: as §1

[21] = target: Gal(b1-3)GlcNAc(a1-3)Gal(b1-4)GlcNAc
Outline: as §1

[22] = target: Gal(b1-3)GlcNAc(a1-6)Gal(b1-4)GlcNAc
Outline: as §1

Gal(b1-3)GlcNAc(b1-2)Man = target: Gal(b1-3)GlcNAc(b1-2)Man
Outline: as §1

B1: AT3G44510(29) (Arabidopsis thaliana), F4J341 (protein)
chain: MEEHLQGRIKLHDGRYLAYKERGVPKDDAKFTIVLVHGFGSSKDMNFNVSQELVNEIGIYFVLYDRAGYGESDPNPKRSLKSEAYDVQELADGLEIGSRFYLIGISMGSYTVWSCLKHIPQRLAGVAMVAPVVNFRWPSIPKSLMPKDYRREVAKWSVWIANYFPGLLQWLVTQNMFSTTSMLEKNPVYFNDQDIEVLKHIKGFPMLTKEKLRERGVFGTLRSDFLVAFGDWDFDPADLPDPSLSGPEKGSSSVHIWQGYEDKVMPFQLQRCLCRKLPWIRYHEVPKGGHLIVHYDGICDAILKSLLLGEDLPMYKPKAVITEPA
Gal(a1-3)Gal
  glycan array binding signal (z-score): -0.649
Gal(a1-3)Gal(b1-3)GlcNAc
  glycan array binding signal (z-score): -0.707
[1]
  glycan array binding signal (z-score): -0.825
[2]
  glycan array binding signal (z-score): -0.399
[3]
  glycan array binding signal (z-score): -0.866
[4]
  glycan array binding signal (z-score): -0.135
[5]
  glycan array binding signal (z-score): 0.473
Gal(a1-3)Gal(b1-4)Glc
  glycan array binding signal (z-score): -0.538
Gal(a1-3)Gal(b1-4)GlcNAc
  glycan array binding signal (z-score): -0.608
[6]
  glycan array binding signal (z-score): -0.482
[7]
  glycan array binding signal (z-score): -0.112
[8]
  glycan array binding signal (z-score): -0.275
[9]
  glycan array binding signal (z-score): -0.911
[10]
  glycan array binding signal (z-score): 0.611
[11]
  glycan array binding signal (z-score): -0.647
Gal(a1-3)GalNAc
  glycan array binding signal (z-score): 2.52
[12]
  glycan array binding signal (z-score): 7.13
[13]
  glycan array binding signal (z-score): -0.494
Gal(a1-4)Gal(b1-4)Glc
  glycan array binding signal (z-score): 3.6
Gal(a1-4)Gal(b1-4)GlcNAc
  glycan array binding signal (z-score): 0.224
[14]
  glycan array binding signal (z-score): 0.7
[15]
  glycan array binding signal (z-score): -0.481
Gal(a1-4)GlcNAc
  glycan array binding signal (z-score): -0.197
Gal(a1-6)Glc
  glycan array binding signal (z-score): -0.803
Gal(b1-2)Gal
  glycan array binding signal (z-score): -0.185
Gal(b1-3)Gal
  glycan array binding signal (z-score): -0.091
Gal(b1-3)Gal(b1-4)GlcNAc
  glycan array binding signal (z-score): -0.105
Gal(b1-3)GalNAc
  glycan array binding signal (z-score): -0.263
[16]
  glycan array binding signal (z-score): -0.064
[17]
  glycan array binding signal (z-score): -0.44
Gal(b1-3)GalNAc(b1-3)Gal
  glycan array binding signal (z-score): -0.725
[18]
  glycan array binding signal (z-score): -0.499
[19]
  glycan array binding signal (z-score): 1.73
[20]
  glycan array binding signal (z-score): -0.184
Gal(b1-3)GlcNAc
  glycan array binding signal (z-score): -0.484
[21]
  glycan array binding signal (z-score): 0.445
[22]
  glycan array binding signal (z-score): -0.312
Gal(b1-3)GlcNAc(b1-2)Man
  glycan array binding signal (z-score): 0.081

— the supplement of paper PMC8728848
